{"source": "PubChem BioAssay AID1259405, NCATS – 2018", "screen": "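Silenced genes that increase secreted GFP made by CHO cells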 (primary screen)", "system": "Chinese hamster CHO-K1 ovary cells with stable secreted eGFP expression", "reagent": "single siRNA against mouse genes, 0.8 pmol siRNA per well (2 µl of 400 nM stock)", "timing": "3 days", "read-out": "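Per-well intracellular GFP measured by laser scanning cytometry, plus viability from ATP luminescence, each relative to plate median of non-targeting control wells, in %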", "direction": "GFP, % of control: higher = more GFP per well, higher productivity; viability (ATP), % of control: higher = more viable cells (more ATP)", "hit rule": "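a knock-down is called active if GFP reaches 120% or more of non-targeting control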", "note": "Shown is one part, drawn at random, of about 50,000 reagents tested. About 4,000 of all reagents (8%) count as active. 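Mouse siRNA library applied to hamster cells; one well for each siRNA.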 Unmarked entries are inactive. The numbers tell different reagents against one gene apart."}
{"gene symbol": "Dbf4", "siRNA no.": 1, "GFP, % of control": 80.9, "viability (ATP), % of control": 81.8}
{"gene symbol": "Dbf4", "siRNA no.": 2, "GFP, % of control": 108, "viability (ATP), % of control": 98.5}
{"gene symbol": "Ngef", "siRNA no.": 1, "GFP, % of control": 57.4, "viability (ATP), % of control": 54.8}
{"gene symbol": "Ngef", "siRNA no.": 2, "GFP, % of control": 92.6, "viability (ATP), % of control": 80.4}
{"gene symbol": "Ngef", "siRNA no.": 3, "GFP, % of control": "149 (active)", "viability (ATP), % of control": 57.5}
{"gene symbol": "Hectd4", "siRNA no.": 1, "GFP, % of control": 42, "viability (ATP), % of control": 82.2}
{"gene symbol": "Hectd4", "siRNA no.": 2, "GFP, % of control": 34.9, "viability (ATP), % of control": 69.6}
{"gene symbol": "Hectd4", "siRNA no.": 3, "GFP, % of control": 71.3, "viability (ATP), % of control": 66.3}
{"gene symbol": "Runx1t1", "siRNA no.": 1, "GFP, % of control": 92.3, "viability (ATP), % of control": 144}
{"gene symbol": "Runx1t1", "siRNA no.": 2, "GFP, % of control": 101, "viability (ATP), % of control": 106}
{"gene symbol": "Runx1t1", "siRNA no.": 3, "GFP, % of control": 70.7, "viability (ATP), % of control": 68.2}
{"gene symbol": "Surf4", "siRNA no.": 1, "GFP, % of control": 66.9, "viability (ATP), % of control": 55.7}
{"gene symbol": "Surf4", "siRNA no.": 2, "GFP, % of control": 89.2, "viability (ATP), % of control": 83.3}
{"gene symbol": "Surf4", "siRNA no.": 3, "GFP, % of control": 90.9, "viability (ATP), % of control": 97.2}
{"gene symbol": "Cbfa2t2", "siRNA no.": 1, "GFP, % of control": 115, "viability (ATP), % of control": 152}
{"gene symbol": "Cbfa2t2", "siRNA no.": 2, "GFP, % of control": 39, "viability (ATP), % of control": 47.2}
{"gene symbol": "Cbfa2t2", "siRNA no.": 3, "GFP, % of control": 72.6, "viability (ATP), % of control": 82.4}
{"gene symbol": "Pdgfrl", "siRNA no.": 1, "GFP, % of control": 77.8, "viability (ATP), % of control": 73.1}
{"gene symbol": "C2cd2l", "siRNA no.": 1, "GFP, % of control": 81.1, "viability (ATP), % of control": 88.9}
{"gene symbol": "C2cd2l", "siRNA no.": 2, "GFP, % of control": 82, "viability (ATP), % of control": 111}
{"gene symbol": "C2cd2l", "siRNA no.": 3, "GFP, % of control": 107, "viability (ATP), % of control": 119}
{"gene symbol": "Zscan2", "siRNA no.": 1, "GFP, % of control": 66.5, "viability (ATP), % of control": 51.3}
{"gene symbol": "Zscan2", "siRNA no.": 2, "GFP, % of control": 72.1, "viability (ATP), % of control": 68.9}
{"gene symbol": "Zscan2", "siRNA no.": 3, "GFP, % of control": "181 (active)", "viability (ATP), % of control": 71.1}
{"gene symbol": "Rps27l", "siRNA no.": 1, "GFP, % of control": 41.3, "viability (ATP), % of control": 53.1}
{"gene symbol": "Rps27l", "siRNA no.": 2, "GFP, % of control": 86.5, "viability (ATP), % of control": 79.3}
{"gene symbol": "Rps27l", "siRNA no.": 3, "GFP, % of control": 67.8, "viability (ATP), % of control": 65.5}

2 successive reagents already listed, quoted:
{"gene symbol": "Ngef", "siRNA no.": 3, "GFP, % of control": "149 (active)", "viability (ATP), % of control": 57.5}
{"gene symbol": "Hectd4", "siRNA no.": 1, "GFP, % of control": 42, "viability (ATP), % of control": 82.2}

The list goes on:
{"gene symbol": "Dok5", "siRNA no.": 1, "GFP, % of control": 87.5, "viability (ATP), % of control": 81.6}
{"gene symbol": "Dok5", "siRNA no.": 2, "GFP, % of control": 102, "viability (ATP), % of control": 86.9}
{"gene symbol": "Dok5", "siRNA no.": 3, "GFP, % of control": 92.6, "viability (ATP), % of control": 61.6}
{"gene symbol": "H1f2", "siRNA no.": 1, "GFP, % of control": 88.6, "viability (ATP), % of control": 107}
{"gene symbol": "H1f2", "siRNA no.": 2, "GFP, % of control": 89.9, "viability (ATP), % of control": 122}
{"gene symbol": "H1f2", "siRNA no.": 3, "GFP, % of control": 64.1, "viability (ATP), % of control": 77.7}
{"gene symbol": "Or4k44", "siRNA no.": 1, "GFP, % of control": 99, "viability (ATP), % of control": 125}
{"gene symbol": "Or4k44", "siRNA no.": 2, "GFP, % of control": 65.4, "viability (ATP), % of control": 75.2}
{"gene symbol": "Or4k44", "siRNA no.": 3, "GFP, % of control": 63.7, "viability (ATP), % of control": 96.8}
{"gene symbol": "Sack1f", "siRNA no.": 1, "GFP, % of control": 66.5, "viability (ATP), % of control": 54.8}
{"gene symbol": "Sack1f", "siRNA no.": 2, "GFP, % of control": 92.2, "viability (ATP), % of control": 51.4}
{"gene symbol": "Sack1f", "siRNA no.": 3, "GFP, % of control": 88.1, "viability (ATP), % of control": 69.7}
{"gene symbol": "Pex5", "siRNA no.": 1, "GFP, % of control": 67.7, "viability (ATP), % of control": 87}
{"gene symbol": "Pex5", "siRNA no.": 2, "GFP, % of control": 71.8, "viability (ATP), % of control": 74}
